Among all 400,000 compounds or so, about 5,500 (1.4%) were called active. Inconclusive means that the source gave no clear call. Such entries were picked first, then a sample of the others. The call rests on the fitted dose curve; in most records, active means well fitted cell-killing curve with a large enough effect; inconclusive means small, poorly fitted or top-dose-only effect, or effect the other way; inactive means flat fitted curve, though single readings scatter. A potency beside an inconclusive call is a rough fit, not a confirmed value.
Assay: qHTS assay for MDR1-selective chemotherapeutics: Primary screen using the parental adenocarcinoma cell KB-3-1; further: nearly all actives have a fitted effect of over 60% in size
Conditions: KB-3-1 viability, CellTiter-Glo ATP luminescence, 72 h; activity change, negative = cytotoxic: at 46.1 µM (top of the series)
Method in brief: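 KB-3-1 cells, DMEM (no phenol red) + 10% FBS; compound by pin transfer, 72 h, 37 °C. Readout: CellTiter-Glo luminescence after 10 min. Data normalized, curve-fitted.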
On the % scale 0 is the no-effect control and ±100 the full control effect; potency means the concentration at half of the fitted maximal effect.

Row | Compound | Potency | activity change, negative = cytotoxic
1 | CCOc1ccc2c(c1)OC(c1ccc(OC)cc1)(C(F)(F)F)NC2=O (stereo unspecified) | active: 5.17 µM | 
2 | Cc1ccc(-c2nc(SCC(=O)N(C)C3CCS(=O)(=O)C3)[nH]c2-c2ccc(C)cc2)cc1 (stereo unspecified) | inconclusive: 23.1 µM [cytotoxic, single point] | 
3 | Oc1ccc(Cl)cc1C1=NNC(c2ccc(Cl)cc2)C1 (stereo unspecified) | active: 23.1 µM | 
4 | Cc1cccc(C)c1OCCNC(=O)OCc1ccccc1 |  | inactive: 0.421%
5 | O=C(NCCCc1nc2ccccc2[nH]1)c1ccc(F)cc1 |  | inactive: -1.99%
6 | CCc1ccc(-c2[nH]c3c(c2-c2sc(C)c(C(=O)OC)c2O)c(=O)[nH]c(=O)n3C)cc1 | inconclusive: 2.91 µM [cytotoxic, partial curve, poor fit] | 
7 | N#Cc1c(NC(=O)CSc2ncnc3c2cnn3-c2ccccc2Cl)sc2c1CCCC2 | inconclusive: 20.6 µM [cytotoxic, single point] | 
8 | COc1ccc(C(=O)Nc2cc(Cl)ccc2N2CCOCC2)cc1S(=O)(=O)N1CCOCC1 | inconclusive: 29.1 µM [cytotoxic, single point] | 
9 | CC(C)(C)c1ccc(-n2ncc3c2CCCC3NC(=O)CN2CCCC2=O)cc1 (stereo unspecified) | inconclusive: 29.1 µM [cytotoxic, single point] | 
10 | N#Cc1c(N)nc(N)nc1Nc1ccc(Br)cc1 | inconclusive: 23.1 µM [cytotoxic, single point] | 
11 | O=C(O)c1cc(N=Cc2c(O)c3ccccc3oc2=O)ccc1O | inconclusive: 18.4 µM [cytotoxic, partial curve, poor fit] | 
12 | N=c1c(C(=O)NCc2ccco2)cc2c(=O)n3ccccc3nc2n1Cc1ccc(Cl)cc1 | inconclusive: 14.6 µM [cytotoxic, partial curve] | 
13 | CC(C)C[C@H]1CNC(=S)N1C[C@H]1CCCN1C[C@H](CC(C)C)N1C[C@H](Cc2ccc(O)cc2)N(CC2CCCCC2)C1=S | inconclusive: 16.4 µM [cytotoxic, single point] | 
14 | CC(C)C(=O)COc1c2occc2cc2ccc(=O)oc12 | inconclusive: 0.0058 µM [rising, full curve] | 
15 | C#CCNc1cc(-c2ccccc2)nc2ncnn12 | inconclusive: 13 µM [rising, partial curve, poor fit] | 
16 | COc1cc(C(=O)OCCN2CCCCC2)ccc1O |  | inactive: -3.92%
17 | COc1cccc(CC2(CO)CCN(Cc3cnc(N4CCOCC4)s3)CC2)c1 |  | inactive: -11%
18 | CN(C)CCNC(=O)c1cccc2nc3c(ccc4ccccc43)nc12 | active: 7.31 µM | 
19 | CCN1/C(=C/c2cccc[n+]2C)Sc2ccc(OC)cc21 | inconclusive: 7.31 µM [cytotoxic, partial curve, poor fit] | 
20 | CC(C)c1ccc(NC(=O)Nc2nc(C(N)C3CCCCC3)cs2)cc1 (stereo unspecified) | inconclusive: 29.1 µM [cytotoxic, single point] | 
21 | O=C1C2C3CCC(C3)C2C(=O)N1c1ccc(OS(=O)(=O)c2ccccc2)cc1 (stereo unspecified) | inconclusive: 25.9 µM [cytotoxic, single point] | 
22 | O=C(Nc1nnc(-c2ccccc2)o1)c1ccc(Cl)cc1 | inconclusive: 23.1 µM [cytotoxic, partial curve, poor fit] | 
23 | COc1cc2c(cc1O)C(CSC)Cc1cc3c(cc1N(C)CC2)OCO3 (stereo unspecified) | inconclusive: 25.9 µM [cytotoxic, single point] | 

Row | Compound | Potency | activity change, negative = cytotoxic
24 | Cc1c(Cl)cccc1Nc1nc(NCCO)c2ccccc2n1 | inconclusive: 29.1 µM [cytotoxic, single point] | 
25 | CCOc1ccc(-n2c(C)c(C(=O)OC)c3cc(O)ccc32)cc1 |  | inactive: -0.534%
26 | CCCOCCOC(=O)c1[nH]c2c(c1C)C(=O)CC(c1cc(OC)ccc1OC)C2 (stereo unspecified) | active: 5.8 µM | 
27 | N#C/C(C(N)=O)=c1/ccc2c(c1)N1C3=C(CCCC3)CC3CCCCC31N=2 (stereo unspecified) | inconclusive: 25.9 µM [cytotoxic, single point] | 
28 | CSc1ncccc1C(=O)NCCc1ccc(S(N)(=O)=O)cc1 |  | inconclusive: 18.3%
29 | CS(=O)(=O)N(CC(=O)Nc1cccc(Br)c1)Cc1ccccc1 |  | inactive: -4.94%
30 | COc1cc(/C=N/N(C)c2ccccc2)ccc1O | inconclusive: 14.6 µM [cytotoxic, partial curve, poor fit] | 
31 | OCC1(Cc2cccc(Cl)c2)CCCN(Cc2cnn(-c3ccccc3)c2)C1 (stereo unspecified) |  | inactive: -2.35%
32 | C/C(=N\Nc1ccc(Cl)nn1)c1ccccc1O | active: 14.6 µM | 
33 | N#CC(C#N)=C1C=CC=CN1/C(=C\c1ccccc1Cl)C(=O)c1ccccc1 | inconclusive: 29.1 µM [cytotoxic, single point] | 
34 | C[C@@H]1CN([C@H](C)CO)C(=O)CCCn2cc(nn2)CO[C@H]1CN(C)C(=O)Nc1ccccc1C(F)(F)F |  | inactive: 0.337%
35 | COc1ccc(OCCN2CCC(C(=O)NC(c3ccccc3)c3ccc4ccccc4n3)CC2)cc1 (stereo unspecified) | inconclusive: 29.1 µM [cytotoxic, single point] | 
36 | Cc1cc(NCCN2CCOCC2)c2ccc3ccccc3c2n1 | inconclusive: 29.1 µM [cytotoxic, single point] | 
37 | CCOC(=O)C1CCCN(CC(=O)/C=C2/N(C)c3ccccc3C2(C)C)C1 (stereo unspecified) |  | inactive: -6.81%
38 | Fc1ccc(NC(=S)NNc2ncc(C(F)(F)F)cc2Cl)c(F)c1 | active: 20.6 µM | 
39 | c1ccc(-c2nc(NCC3CCCO3)c3oc4ccccc4c3n2)cc1 (stereo unspecified) |  | inactive: 1.97%
40 | CCOc1ccc(NC(=O)CN(C)C(=O)CCSc2ccc(F)cc2)cc1OCC | inconclusive: 29.1 µM [cytotoxic, single point] | 
41 | O=C(NCCc1c[nH]c2ccccc12)C(=O)NCC(c1cccnc1)N1CCN(c2ccccc2)CC1 (stereo unspecified) |  | inactive: -14.5%
42 | O=C1CN(S(=O)(=O)c2ccccc2)CCN1 |  | inactive: 14.8%
43 | O=C(O)c1c[nH]c2c([N+](=O)[O-])cccc2c1=O |  | inactive: -5.3%
44 | COC(=O)c1ccc(C2c3c(-c4ccccc4O)n[nH]c3C(=O)N2Cc2cccnc2)cc1 (stereo unspecified) |  | inactive: 15.9%
45 | COC(=O)N1c2ccccc2CCc2ccccc21 | inconclusive: 16.4 µM [cytotoxic, single point] | 
46 | Cc1ccc(NC(=O)c2cccnc2)c([N+](=O)[O-])c1 | inconclusive: 16.4 µM [cytotoxic, partial curve, poor fit] | 

In a second layout: results already given
Row	Compound	Potency	activity change, negative = cytotoxic
25	CCOc1ccc(-n2c(C)c(C(=O)OC)c3cc(O)ccc32)cc1		inactive: -0.534%
26	CCCOCCOC(=O)c1[nH]c2c(c1C)C(=O)CC(c1cc(OC)ccc1OC)C2 (stereo unspecified)	active: 5.8 µM	
27	N#C/C(C(N)=O)=c1/ccc2c(c1)N1C3=C(CCCC3)CC3CCCCC31N=2 (stereo unspecified)	inconclusive: 25.9 µM [cytotoxic, single point]	
28	CSc1ncccc1C(=O)NCCc1ccc(S(N)(=O)=O)cc1		inconclusive: 18.3%
29	CS(=O)(=O)N(CC(=O)Nc1cccc(Br)c1)Cc1ccccc1		inactive: -4.94%
30	COc1cc(/C=N/N(C)c2ccccc2)ccc1O	inconclusive: 14.6 µM [cytotoxic, partial curve, poor fit]	
31	OCC1(Cc2cccc(Cl)c2)CCCN(Cc2cnn(-c3ccccc3)c2)C1 (stereo unspecified)		inactive: -2.35%
32	C/C(=N\Nc1ccc(Cl)nn1)c1ccccc1O	active: 14.6 µM	
33	N#CC(C#N)=C1C=CC=CN1/C(=C\c1ccccc1Cl)C(=O)c1ccccc1	inconclusive: 29.1 µM [cytotoxic, single point]	
34	C[C@@H]1CN([C@H](C)CO)C(=O)CCCn2cc(nn2)CO[C@H]1CN(C)C(=O)Nc1ccccc1C(F)(F)F		inactive: 0.337%
35	COc1ccc(OCCN2CCC(C(=O)NC(c3ccccc3)c3ccc4ccccc4n3)CC2)cc1 (stereo unspecified)	inconclusive: 29.1 µM [cytotoxic, single point]	
36	Cc1cc(NCCN2CCOCC2)c2ccc3ccccc3c2n1	inconclusive: 29.1 µM [cytotoxic, single point]	

Reference: PubChem BioAssay AID1347075 (National Center for Advancing Translational Sciences (NCATS), 2019)
